Data as given in patent US9328062B2, “Imide compound, method for manufacturing same, and use as insecticide” (Mitsui Chemicals Agro, Inc., priority 2012, dated 2016).
Some of these results come from one statement about several compounds together.

Columns and labels:
Spodoptera litura = experiment: Insecticidal Test against Spodoptera litura; type: in vivo; conditions: concentration of 100 ppm; cabbage leaf immersed 30 seconds; 2-stage larvae; 25° C.; examined after 3 days
Plutella xylostella = experiment: Insecticidal Test against Plutella xylostella; type: in vivo; conditions: concentration of 100 ppm; cabbage leaf immersed 30 seconds; 2-stage larvae; 25° C.; examined after 3 days

SMILES | insecticidal death rate (Spodoptera litura) | insecticidal death rate (Plutella xylostella)
CN(C(=O)c1ccc([N+](=O)[O-])cc1)c1cccc(C(=O)N(C(=O)c2cccc(N(C)C(=O)c3ccc([N+](=O)[O-])cc3)c2F)c2c(I)cc(C(F)(C(F)(F)F)C(F)(F)F)cc2C(F)(F)F)c1F [Compound No. 1358, N-[2-fluoro-3-[4-nitrobenzoyl(methyl)amino]benzoyl]-3-[4-nitrobenzoyl(methyl)amino]-N-[4-heptafluoroisopropyl-2-iodo-6-(trifluoromethyl)phenyl]-2-fluorobenzamide] | ≥ 70% | ≥ 70%
CN(C(=O)c1ccc(F)cc1)c1cccc(C(=O)N(C(=O)c2cccc(N(C)C(=O)c3ccc(F)cc3)c2F)c2c(I)cc(C(F)(C(F)(F)F)C(F)(F)F)cc2C(F)(F)F)c1F [Compound No. 1345, N-[2-fluoro-3-[4-fluorobenzoyl(methyl)amino]benzoyl]-3-[4-fluorobenzoyl(methyl)amino]-N-[4-heptafluoroisopropyl-2-iodo-6-(trifluoromethyl)phenyl]-2-fluorobenzamide] | ≥ 70% | 
CN(C(=O)c1ccccc1)c1cccc(C(=O)N(C(=O)c2cccc(N(C)C(=O)c3ccccc3)c2F)c2c(I)cc(C(F)(C(F)(F)F)C(F)(F)F)cc2C(F)(F)F)c1F [Compound No. 1343, N-[2-fluoro-3-[benzoyl(methyl)amino]benzoyl]-3-[benzoyl(methyl)amino]-N-[4-heptafluoroisopropyl-2-iodo-6-(trifluoromethyl)phenyl]-2-fluorobenzamide] | ≥ 70% | ≥ 70%
CN(C(=O)c1ccc([N+](=O)[O-])cc1)c1cccc(C(=O)N(C(=O)c2cccc(N(C)C(=O)c3ccc([N+](=O)[O-])cc3)c2F)c2c(Br)cc(C(F)(C(F)(F)F)C(F)(F)F)cc2C(F)(F)F)c1F [Compound No. 1357, N-[2-fluoro-3-[4-nitrobenzoyl(methyl)amino]benzoyl]-3-[4-nitrobenzoyl(methyl)amino]-N-[2-bromo-4-heptafluoroisopropyl-6-(trifluoromethyl)phenyl]-2-fluorobenzamide] | ≥ 70% | ≥ 70%
CN(C(=O)c1ccc(F)cc1)c1cccc(C(=O)N(C(=O)c2cccc(N(C)C(=O)c3ccc(F)cc3)c2F)c2c(Br)cc(C(F)(C(F)(F)F)C(F)(F)F)cc2C(F)(F)F)c1F [Compound No. 1344, N-[2-fluoro-3-[4-fluorobenzoyl(methyl)amino]benzoyl]-3-[4-fluorobenzoyl(methyl)amino]-N-[2-bromo-4-heptafluoroisopropyl-6-(trifluoromethyl)phenyl]-2-fluorobenzamide] | ≥ 70% | ≥ 70%
CN(C(=O)c1ccccc1)c1cccc(C(=O)N(C(=O)c2cccc(N(C)C(=O)c3ccccc3)c2F)c2c(Br)cc(C(F)(C(F)(F)F)C(F)(F)F)cc2C(F)(F)F)c1F [Compound No. 1342, N-[2-fluoro-3-[benzoyl(methyl)amino]benzoyl]-3-[benzoyl(methyl)amino]-N-[2-bromo-4-heptafluoroisopropyl-6-(trifluoromethyl)phenyl]-2-fluorobenzamide] | ≥ 70% | ≥ 70%
